Data as given in PubChem BioAssay AID1053208 (Peter MacCallum Cancer Centre, 2014)

Screen: 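Genes whose silencing cuts survival of bone tumour cells only with doxorubicin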 (primary screen)
Cells: mouse osteosarcoma cells, early-passage culture from an engineered mouse model of fibroblastic bone tumour
Knock-down reagent: siRNA pool against mouse genes, 40 nM
Duration: about 120 h (48 h before drug, then 72 h with drug)
Challenge: doxorubicin 100 nM for 72 h, roughly 30-40% inhibitory dose
Measured: 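Luminescent ATP signal taken as viability with or without 100 nM doxorubicin for 72 h; mean of two wells set against non-targeting siRNA and turned into robust z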
Reading the numbers: viability z-score with doxorubicin and doxorubicin viability vs non-targeting: higher = more viable cells under doxorubicin; viability z-score without drug: higher = more viable cells with knock-down alone; z-score of drug to no-drug ratio: higher = less drug sensitisation by knock-down
Hit rule: 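a pool counts as active when its viability z-score with doxorubicin is -2 or below and its z-score without drug lies between -2 and 2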
The whole screen tested about 17,000 reagents; shown is an unselected part. In the full data, 788 (4.7%) were called active. 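Calls rest on z-score classes alone; an extra cut-off of viability at most 70% of control was not applied to them.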 Entries without a mark were called inactive. Some reagents were tested in more than one well and are listed for each. No sequences are given here.

| Target gene | combined z-score class | viability z-score with doxorubicin | viability z-score without drug | z-score of drug to no-drug ratio | doxorubicin viability vs non-targeting |
| --- | --- | --- | --- | --- | --- |
| Dleu7 | no change with or without drug | -0.67 | -0.51 | -0.22 | 0.88 |
| Upf1 | no change with or without drug | -1.24 | -1.18 | -0.45 | 0.83 |
| Gbp5 | no change with or without drug | -1.01 | 0.17 | -1.01 | 0.85 |
| Grik4 | no change with or without drug | 1.46 | -0.17 | 1.8 | 1.07 |
| Dpep3 | no change with or without drug | 0.9 | -0.17 | 1.24 | 1.02 |
| Ddx54 | no change with or without drug | 0.67 | 0.84 | 0.22 | 1 |
| Rpl31 | low cell count with and without drug | -5.85 | -4.55 | -4.05 | 0.42 |
| Pdia6 | no change with or without drug | -0.56 | -0.17 | -0.34 | 0.89 |
| Nfil3 | no change with or without drug | 1.12 | 0.67 | 0.79 | 1.04 |
| Pcdha5 | no change with or without drug | -1.12 | -1.18 | -0.34 | 0.84 |
| Mrpl2 | no change with or without drug | 0.9 | -0.17 | 1.24 | 1.02 |
| Zbtb7b | no change with or without drug | 0.9 | 1.18 | 0.22 | 1.02 |
| Itga6 | no change with or without drug | -0.56 | -0.84 | 0.11 | 0.89 |
| Art3 | no change with or without drug | 1.35 | 1.69 | 0.34 | 1.06 |
| Grep1 | no change with or without drug | 1.57 | 1.18 | 0.9 | 1.08 |
| Pla2g2c | no change with or without drug | -0.45 | -0.34 | -0.11 | 0.9 |
| Rgs7 | no change with or without drug | -0.67 | -0.51 | -0.22 | 0.88 |
| Rgs7 | low cell count without drug only | 0.45 | -3.2 | 3.48 | 0.98 |
| Hes2 | no change with or without drug | -0.45 | -0.17 | -0.22 | 0.9 |
| Tbc1d9 | no change with or without drug | 0.45 | 0.34 | 0.34 | 0.98 |
| Cldn9 | no change with or without drug | 0 | -0.51 | 0.45 | 0.94 |
| Nap1l2 | no change with or without drug | -0.9 | -0.51 | -0.56 | 0.86 |
| Tpte | no change with or without drug | -0.22 | 0.17 | -0.22 | 0.92 |
| Slc30a8 | low cell count with doxorubicin only (active) | -2.25 | -0.84 | -1.8 | 0.74 |
| Smc6 | no change with or without drug | -0.9 | -0.17 | -0.79 | 0.86 |
| Caly | no change with or without drug | -0.67 | 0.17 | -0.67 | 0.88 |
| Cpa3 | no change with or without drug | 1.8 | 0.17 | 1.91 | 1.1 |
| Zkscan1 | no change with or without drug | -0.45 | -0.17 | -0.22 | 0.9 |
| Stra6 | no change with or without drug | 1.57 | -0.84 | 2.47 | 1.08 |

Part of the list above, showing only “viability z-score with doxorubicin”:
Mrpl2: 0.9
Zbtb7b: 0.9
Itga6: -0.56
Art3: 1.35
Grep1: 1.57

Continued.
| Target gene | combined z-score class | viability z-score with doxorubicin | viability z-score without drug | z-score of drug to no-drug ratio | doxorubicin viability vs non-targeting |
| --- | --- | --- | --- | --- | --- |
| Plau | no change with or without drug | 0.22 | 0.84 | -0.22 | 0.96 |
| Arhgef40 | no change with or without drug | -1.46 | 0.84 | -1.91 | 0.81 |
| Dkk3 | no change with or without drug | -0.34 | 1.18 | -1.01 | 0.91 |
| Gjb3 | no change with or without drug | 0.56 | 0.34 | 0.45 | 0.99 |
| Gtpbp4 | low cell count without drug only | -0.9 | -2.19 | 0.79 | 0.86 |
| Ckmt1 | no change with or without drug | 0 | -0.17 | 0.22 | 0.94 |
| Tas2r130 | low cell count with doxorubicin only (active) | -2.02 | 0.34 | -2.25 | 0.76 |
| Fam163b | no change with or without drug | 1.24 | 0.17 | 1.24 | 1.05 |
| Qsox2 | no change with or without drug | 0.45 | -0.17 | 0.67 | 0.98 |
| Vmn2r42 | no change with or without drug | -1.35 | -0.84 | -0.79 | 0.82 |
| Rnf19a | no change with or without drug | 0.22 | -0.51 | 0.67 | 0.96 |
| Cadm3 | no change with or without drug | 0.22 | 0.67 | -0.11 | 0.96 |
| Ctsa | no change with or without drug | -0.34 | 0.51 | -0.56 | 0.91 |
| Trdv2-2 | no change with or without drug | 0 | -0.17 | 0.22 | 0.94 |
| Or51t4 | low cell count without drug only | -1.57 | -2.53 | 0.22 | 0.8 |
| Slc26a9 | no change with or without drug | 0.34 | 1.69 | -0.67 | 0.97 |
| Ipo5 | no change with or without drug | -0.34 | 0.51 | -0.56 | 0.91 |
| Rbck1 | low cell count with and without drug | -2.02 | -3.2 | 0.22 | 0.76 |
| Ccl21b | no change with or without drug | -0.79 | -0.67 | -0.22 | 0.87 |
| Wif1 | no change with or without drug | 0.34 | 0.84 | -0.11 | 0.97 |
| Olfml1 | no change with or without drug | 0 | -0.84 | 0.67 | 0.94 |
